Test results taken from patent publication US20120028880A1, “VEGFR-1/NRP-1 TARGETING PEPTIDES” (priority 2007, published 2012).
Entries after “also recorded” stand apart in the source; their conditions may differ. Not every detail of the peptide structures is certain; ends, links or a residue may be inferred. Square brackets hold non-standard residues; d marks the D form. Peptide text beside a SMILES is read from it.

Chains of the proteins cited; added tags and fusions are not shown. Residues count along the entry.
UniProt P17948, 27-1338, species assumed: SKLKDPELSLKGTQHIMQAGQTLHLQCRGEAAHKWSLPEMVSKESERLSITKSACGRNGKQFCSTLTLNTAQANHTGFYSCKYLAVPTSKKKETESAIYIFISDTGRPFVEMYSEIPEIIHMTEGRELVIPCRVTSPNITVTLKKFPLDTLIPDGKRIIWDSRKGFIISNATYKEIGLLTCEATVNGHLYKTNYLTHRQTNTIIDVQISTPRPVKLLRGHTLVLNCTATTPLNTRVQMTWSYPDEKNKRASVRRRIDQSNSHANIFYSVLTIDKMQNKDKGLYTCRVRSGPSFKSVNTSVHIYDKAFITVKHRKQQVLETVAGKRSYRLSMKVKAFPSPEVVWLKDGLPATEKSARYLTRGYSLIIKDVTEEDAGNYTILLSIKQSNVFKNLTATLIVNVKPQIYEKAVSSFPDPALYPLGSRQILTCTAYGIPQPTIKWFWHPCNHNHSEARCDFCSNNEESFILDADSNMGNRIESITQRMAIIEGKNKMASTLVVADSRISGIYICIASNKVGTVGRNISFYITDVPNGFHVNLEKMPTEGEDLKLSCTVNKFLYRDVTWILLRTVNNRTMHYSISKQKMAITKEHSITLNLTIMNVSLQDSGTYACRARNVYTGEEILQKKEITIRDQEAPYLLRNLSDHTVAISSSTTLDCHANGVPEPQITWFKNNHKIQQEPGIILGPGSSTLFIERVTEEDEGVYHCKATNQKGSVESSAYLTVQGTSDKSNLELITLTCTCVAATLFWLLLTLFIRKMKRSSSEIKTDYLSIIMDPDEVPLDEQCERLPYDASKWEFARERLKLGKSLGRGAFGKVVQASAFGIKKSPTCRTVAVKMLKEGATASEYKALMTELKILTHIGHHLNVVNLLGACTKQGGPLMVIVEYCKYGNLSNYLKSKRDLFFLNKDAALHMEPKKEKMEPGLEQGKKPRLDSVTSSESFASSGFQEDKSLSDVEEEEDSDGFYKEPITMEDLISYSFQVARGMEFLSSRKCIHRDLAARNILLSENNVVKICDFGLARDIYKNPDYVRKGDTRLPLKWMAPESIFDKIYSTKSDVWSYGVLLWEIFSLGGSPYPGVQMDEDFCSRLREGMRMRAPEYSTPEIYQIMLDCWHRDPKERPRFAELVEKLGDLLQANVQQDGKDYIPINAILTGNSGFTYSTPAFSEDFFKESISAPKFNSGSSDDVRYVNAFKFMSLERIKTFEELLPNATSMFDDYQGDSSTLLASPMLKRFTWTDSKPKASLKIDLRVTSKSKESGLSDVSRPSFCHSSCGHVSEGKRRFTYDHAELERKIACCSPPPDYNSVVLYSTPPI
UniProt O14786, 22-923: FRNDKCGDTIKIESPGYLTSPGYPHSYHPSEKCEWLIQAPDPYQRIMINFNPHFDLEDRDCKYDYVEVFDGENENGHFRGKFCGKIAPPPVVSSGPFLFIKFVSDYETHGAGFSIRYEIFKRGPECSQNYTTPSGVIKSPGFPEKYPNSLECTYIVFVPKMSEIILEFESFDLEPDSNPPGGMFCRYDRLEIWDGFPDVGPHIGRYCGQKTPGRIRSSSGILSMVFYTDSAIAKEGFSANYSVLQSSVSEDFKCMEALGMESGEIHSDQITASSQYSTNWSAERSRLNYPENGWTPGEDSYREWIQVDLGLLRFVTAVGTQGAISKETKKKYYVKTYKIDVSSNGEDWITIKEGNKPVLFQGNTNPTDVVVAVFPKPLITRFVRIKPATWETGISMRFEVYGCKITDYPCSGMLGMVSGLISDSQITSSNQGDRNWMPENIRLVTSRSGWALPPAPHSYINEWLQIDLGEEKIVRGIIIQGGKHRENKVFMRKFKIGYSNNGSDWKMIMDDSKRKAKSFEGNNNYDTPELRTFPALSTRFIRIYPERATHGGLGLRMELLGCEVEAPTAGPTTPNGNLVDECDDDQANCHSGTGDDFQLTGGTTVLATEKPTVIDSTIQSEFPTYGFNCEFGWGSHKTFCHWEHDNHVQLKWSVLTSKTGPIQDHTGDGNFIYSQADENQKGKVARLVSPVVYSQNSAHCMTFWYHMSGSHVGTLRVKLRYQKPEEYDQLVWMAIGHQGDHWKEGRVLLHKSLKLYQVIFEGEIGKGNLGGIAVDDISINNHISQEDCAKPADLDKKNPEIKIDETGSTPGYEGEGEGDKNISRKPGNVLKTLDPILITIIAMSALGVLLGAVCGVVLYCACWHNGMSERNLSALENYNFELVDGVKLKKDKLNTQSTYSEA

Columns and labels:
EF43.fgf4 derived tumors = test: Tumor growth, EF43.fgf4 breast cancer model; format: in vivo, mouse; conditions: 50 mg/Kg daily intraperitoneal, after 5 days of treatment, Balb/c mice; control peptidomimetic = D(CAPAC)
Method: Tumor growth. The EF43.fgf4 cells were cultured in Dulbelco's modified Eegles medium supplemented with fetal bovine serum, glutamine and antibiotics. Cells were harvested before reaching confluence and injected subcutaneously in the mammary fatpad of Balb/c mice. Mier 10 days, tumor reached ˜50-80 mm^3 and were then separated into four groups with seven animals (N=7). Animals in each group were treated with either vehicle only (phosphate saline buffered solution) or with control peptide D(CAPAC) (SEQ ID NO:6) or D(LPR) (at 50 mg/Kg) or with the cyclic version D(CLPRC) (SEQ ID NO:7) (at 25 mg/Kg). Tumor volume was calculated by measuring the length of the long (L) and the short (S) sides of each tumor (V=S^2×L×[…]).
Statistical analysis. For the in vivo experiments, statistical significance of the difference was computed by Kruskal-Wallis test (non parametric one factor ANOVA method) with p<0.05 for each treatment day. […] Multiple comparisons were adjusted by Bejamini & Hochberg method. All the statistical analysis was computed using The R (Version 2.4.1) Project for Statistical Computing.

[1] = tested on: human dermal microendothelial cells (HDMEC); test: SCID mouse model of human angiogenesis; format: in vivo; conditions: 25 mg/Kg/day intraperitoneally, day 12 to day 21
[2] = tested on: retinal neovascularization; test: Retinal neovascularization angiogenesis assay (oxygen-induced retinopathy); format: in vivo, mouse
[3] = tested on: neovascularization in Matrigel plugs with human VEGF165; test: In vivo Matrigel angiogenesis assay; design: species or system mouse; conditions: Matrigel with VEGF165 and peptide (500 μg/ml), subcutaneous, 7 days, Balb-c mice; compared to VEGF165 only; control peptidomimetic = D(CAPAC)
VEGFR-1 = molecular target: T1, VEGFR-1 (Homo sapiens, UniProt P17948); test: Phage binding competition assay, immobilized VEGFR-1; conditions: increasing concentrations of peptide
T1 construct: purchased R&D Systems (Minneapolis, Minn.)
Method: (§1) Phage assay. Phage was prepared by infection of log-phase culture of E. coli K91kan, and overnight growth in Luria-Bertani (LB) media supplemented with kanamycin (100 μg/ml) and tetracyclin (20 μg/ml) at 37° C. and 250 rpm. Phage was precipiated from the media supernatant by the PEG/NaCl method, and phage titer determined by serial dilution and colony counting (Giordano, 2001). For the phage binding and competition assays, VEGFR-1, NRP-1 or BSA (10 μg/ml in PBS) was immobilized on microtiter wells overnight at 4° C. Wells were washed twice, blocked with PBS 3% BSA for 2 h at room temperature and incubated with 10^9 TU of CPQPRPLC or negative control insertless (Fd-tet) phage in PBS 3% BSA. After 1 h at room temperature, wells were washed 10 times with PBS and phage bound to the immobilized receptors recovered by bacterial infection (Giordano, 2001).

NRP-1 = molecular target: T2, NRP-1 (Homo sapiens, UniProt O14786); test: Phage binding competition assay, immobilized NRP-1; conditions: increasing concentrations of peptide
T2 construct: purchased R&D Systems (Minneapolis, Minn.)
Method: as §1

SMILES | effect on tumor volume (EF43.fgf4 derived tumors) | reduction in vessel formation ([1]; compared to control peptidomimetic D(APA)) [%] | number of vessels positive for human von Willebrand factor ([1]; control peptidomimetic = D(APA)) | reduction in angiogenesis (retina) ([2]; 20 mg/Kg daily for 7 days (P12-P18), read at day P19, compared to vehicle only or control peptidomimetic) [%] | inner surface endothelial nuclei ([2]; 20 mg/Kg daily for 7 days, day P19, control peptidomimetic = D(CAPAC)) [nuclei/retina] | formation of new blood vessels at the retinal inner surface (H&E sections) ([2]; daily injections at 20 mg/Kg, day P19, compared with control animals) | vascularization of Matrigel plugs [3] | inhibition of CPQPRPLC phage binding to immobilized VEGFR-1 (VEGFR-1) | inhibition of CPQPRPLC phage binding to immobilized NRP-1 (NRP-1)
CC(C)C[C@@H](N)C(=O)N1CCC[C@@H]1C(=O)N[C@H](CCCNC(=N)N)C(=O)O [D(LPR), D-Leu-D-Pro-D-Arg] (H-[dL]-[dP]-[dR]-OH) | clear reduction in tumor volume; also recorded: reduced tumor volume | 36.7 | 20.3 vessels per magnification field | 68.5 | 9.4±1.0 | significant reduction | diminished vascularization | – | –
CC(C)C[C@H](NC(=O)[C@@H]1CCCN1C(=O)[C@@H](N)CCCNC(=N)N)C(=O)O [RPL, L-Arg-L-Pro-L-Leu, reference compound] (H-Arg-Pro-Leu-OH) | – | – | – | – | – | – | – | completely abrogated | completely abrogated
